We go through one compound from ChEMBL document CHEMBL6109084, “Discovery of potent, highly selective, and orally bioavailable factor XIa inhibitors for anticoagulant therapy” (Eur J Med Chem, 2025).

A short description of this data set: physchem. The following applies: pH 7.4.

≈ marks a conversion by molar mass, not a printed value.

As to `CC[C@@H](C(=O)Nc1ccc(C(N)=O)c(F)c1)n1cc(OC)c(-c2cc(Cl)ccc2-n2cc(C(F)(F)F)nn2)cc1=O`, the solubility (kinetic) (commonly the concentration staying in solution when a stock, usually in DMSO, is diluted into the medium) at 12 h was 94 µg/mL (≈ 159 µM).
